This is one part of the list.

Chains of the proteins cited; added tags and fusions are not shown. Lines headed by an entry give the natural chain unless they say otherwise; changes in a name come on top.
UniProt Q86VQ3: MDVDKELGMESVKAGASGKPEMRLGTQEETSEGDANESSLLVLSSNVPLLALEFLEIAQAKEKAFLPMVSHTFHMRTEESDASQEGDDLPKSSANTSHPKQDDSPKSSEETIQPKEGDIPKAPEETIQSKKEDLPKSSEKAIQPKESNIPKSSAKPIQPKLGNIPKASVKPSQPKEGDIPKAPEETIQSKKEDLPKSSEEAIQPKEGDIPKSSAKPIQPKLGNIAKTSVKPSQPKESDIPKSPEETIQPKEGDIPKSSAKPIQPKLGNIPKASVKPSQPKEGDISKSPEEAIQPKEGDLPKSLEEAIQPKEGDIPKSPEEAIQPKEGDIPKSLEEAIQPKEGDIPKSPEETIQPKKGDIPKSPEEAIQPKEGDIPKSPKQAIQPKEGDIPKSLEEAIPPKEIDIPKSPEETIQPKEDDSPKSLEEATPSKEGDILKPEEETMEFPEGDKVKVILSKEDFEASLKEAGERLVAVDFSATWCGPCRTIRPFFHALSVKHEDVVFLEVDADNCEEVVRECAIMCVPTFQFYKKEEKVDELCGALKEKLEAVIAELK
UniProt A6NNZ2, whole entry, looked up: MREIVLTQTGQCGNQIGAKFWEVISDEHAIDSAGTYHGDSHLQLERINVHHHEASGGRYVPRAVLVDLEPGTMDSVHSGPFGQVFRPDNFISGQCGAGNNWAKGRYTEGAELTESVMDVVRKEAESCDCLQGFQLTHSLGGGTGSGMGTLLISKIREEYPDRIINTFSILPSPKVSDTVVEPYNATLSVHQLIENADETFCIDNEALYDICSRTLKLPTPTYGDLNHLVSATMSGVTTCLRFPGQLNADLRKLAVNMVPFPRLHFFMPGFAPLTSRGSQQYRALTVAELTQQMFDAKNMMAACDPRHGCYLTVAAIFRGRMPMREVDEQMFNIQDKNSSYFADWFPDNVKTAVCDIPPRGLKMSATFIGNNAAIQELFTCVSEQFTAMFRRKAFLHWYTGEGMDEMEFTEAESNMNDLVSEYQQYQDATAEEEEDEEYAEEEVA
UniProt Q9BVA1, whole entry, looked up: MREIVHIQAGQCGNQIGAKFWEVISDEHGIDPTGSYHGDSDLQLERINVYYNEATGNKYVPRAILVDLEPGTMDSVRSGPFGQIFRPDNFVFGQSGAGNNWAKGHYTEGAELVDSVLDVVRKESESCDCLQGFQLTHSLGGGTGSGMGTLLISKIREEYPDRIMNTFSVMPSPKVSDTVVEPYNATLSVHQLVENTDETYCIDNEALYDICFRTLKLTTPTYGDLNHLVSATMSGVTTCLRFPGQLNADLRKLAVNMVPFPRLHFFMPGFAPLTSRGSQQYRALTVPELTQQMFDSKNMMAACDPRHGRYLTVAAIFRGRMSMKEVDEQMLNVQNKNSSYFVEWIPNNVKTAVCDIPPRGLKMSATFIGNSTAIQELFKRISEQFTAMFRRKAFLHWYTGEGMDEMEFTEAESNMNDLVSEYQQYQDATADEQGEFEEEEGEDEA
UniProt Q6ZU65, whole entry, looked up: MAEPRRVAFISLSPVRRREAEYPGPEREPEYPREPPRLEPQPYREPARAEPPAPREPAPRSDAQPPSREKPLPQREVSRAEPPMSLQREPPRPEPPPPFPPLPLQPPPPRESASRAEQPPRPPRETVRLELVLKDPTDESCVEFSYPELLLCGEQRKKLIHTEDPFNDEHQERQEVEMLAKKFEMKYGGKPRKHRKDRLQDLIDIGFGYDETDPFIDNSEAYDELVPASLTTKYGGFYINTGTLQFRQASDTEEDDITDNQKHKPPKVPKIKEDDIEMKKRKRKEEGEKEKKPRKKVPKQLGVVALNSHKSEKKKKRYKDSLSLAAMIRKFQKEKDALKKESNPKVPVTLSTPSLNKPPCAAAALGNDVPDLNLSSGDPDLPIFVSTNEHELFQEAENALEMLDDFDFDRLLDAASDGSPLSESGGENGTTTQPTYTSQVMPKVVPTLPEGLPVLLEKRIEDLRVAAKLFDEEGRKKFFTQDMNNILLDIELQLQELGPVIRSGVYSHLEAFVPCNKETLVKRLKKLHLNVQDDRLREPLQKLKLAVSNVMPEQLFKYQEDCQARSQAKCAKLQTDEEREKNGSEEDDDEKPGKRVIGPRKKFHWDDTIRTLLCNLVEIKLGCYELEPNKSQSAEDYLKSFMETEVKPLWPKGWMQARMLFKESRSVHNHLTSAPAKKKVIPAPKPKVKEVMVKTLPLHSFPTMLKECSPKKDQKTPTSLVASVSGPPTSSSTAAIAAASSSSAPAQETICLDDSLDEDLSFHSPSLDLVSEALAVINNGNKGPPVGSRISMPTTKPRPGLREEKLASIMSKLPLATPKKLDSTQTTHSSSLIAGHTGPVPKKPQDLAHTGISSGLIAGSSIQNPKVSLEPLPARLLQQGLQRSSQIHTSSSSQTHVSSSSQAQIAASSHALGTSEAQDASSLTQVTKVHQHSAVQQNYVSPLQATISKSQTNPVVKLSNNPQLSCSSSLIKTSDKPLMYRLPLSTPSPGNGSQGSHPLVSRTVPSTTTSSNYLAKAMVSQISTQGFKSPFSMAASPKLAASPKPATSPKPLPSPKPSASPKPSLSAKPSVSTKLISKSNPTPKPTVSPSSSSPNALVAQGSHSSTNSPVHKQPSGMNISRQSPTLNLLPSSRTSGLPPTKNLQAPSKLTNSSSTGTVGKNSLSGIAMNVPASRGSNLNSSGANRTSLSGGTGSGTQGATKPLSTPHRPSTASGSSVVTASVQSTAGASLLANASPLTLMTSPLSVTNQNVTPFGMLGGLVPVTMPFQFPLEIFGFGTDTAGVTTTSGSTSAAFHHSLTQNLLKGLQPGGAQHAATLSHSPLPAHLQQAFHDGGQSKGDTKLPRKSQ
UniProt Q9NY65, whole entry, looked up: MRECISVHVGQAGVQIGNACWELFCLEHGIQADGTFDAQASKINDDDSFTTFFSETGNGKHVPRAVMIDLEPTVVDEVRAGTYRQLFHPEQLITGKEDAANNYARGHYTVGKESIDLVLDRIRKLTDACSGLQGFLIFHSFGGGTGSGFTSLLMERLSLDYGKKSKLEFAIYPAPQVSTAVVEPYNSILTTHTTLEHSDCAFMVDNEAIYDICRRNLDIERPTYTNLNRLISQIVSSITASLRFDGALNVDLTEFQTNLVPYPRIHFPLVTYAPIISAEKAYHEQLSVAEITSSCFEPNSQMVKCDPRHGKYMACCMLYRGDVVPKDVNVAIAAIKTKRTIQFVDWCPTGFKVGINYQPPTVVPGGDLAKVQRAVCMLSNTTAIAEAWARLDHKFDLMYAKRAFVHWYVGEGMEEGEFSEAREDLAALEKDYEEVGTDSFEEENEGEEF
UniProt A2RUC4: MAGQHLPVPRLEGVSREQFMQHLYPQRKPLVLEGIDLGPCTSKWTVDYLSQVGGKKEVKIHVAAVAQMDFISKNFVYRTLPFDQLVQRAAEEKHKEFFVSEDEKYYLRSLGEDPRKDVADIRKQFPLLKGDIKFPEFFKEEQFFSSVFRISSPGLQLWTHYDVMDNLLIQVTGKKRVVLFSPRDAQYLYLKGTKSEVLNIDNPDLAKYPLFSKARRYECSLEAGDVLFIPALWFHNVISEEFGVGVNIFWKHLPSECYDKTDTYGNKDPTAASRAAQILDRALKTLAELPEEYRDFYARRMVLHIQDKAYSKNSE
UniProt O75386: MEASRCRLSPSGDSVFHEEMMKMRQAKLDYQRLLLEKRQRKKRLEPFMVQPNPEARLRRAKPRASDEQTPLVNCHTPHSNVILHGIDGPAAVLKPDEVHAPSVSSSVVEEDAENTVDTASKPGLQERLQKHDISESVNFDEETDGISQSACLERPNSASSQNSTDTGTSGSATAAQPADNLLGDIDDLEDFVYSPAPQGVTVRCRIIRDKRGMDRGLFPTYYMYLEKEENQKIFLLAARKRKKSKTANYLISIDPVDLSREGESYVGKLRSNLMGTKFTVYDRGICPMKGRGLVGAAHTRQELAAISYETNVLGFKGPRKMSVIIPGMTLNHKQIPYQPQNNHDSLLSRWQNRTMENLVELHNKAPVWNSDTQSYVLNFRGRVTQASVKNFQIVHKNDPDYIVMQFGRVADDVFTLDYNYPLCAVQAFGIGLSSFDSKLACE
UniProt Q96RT8, whole entry, looked up: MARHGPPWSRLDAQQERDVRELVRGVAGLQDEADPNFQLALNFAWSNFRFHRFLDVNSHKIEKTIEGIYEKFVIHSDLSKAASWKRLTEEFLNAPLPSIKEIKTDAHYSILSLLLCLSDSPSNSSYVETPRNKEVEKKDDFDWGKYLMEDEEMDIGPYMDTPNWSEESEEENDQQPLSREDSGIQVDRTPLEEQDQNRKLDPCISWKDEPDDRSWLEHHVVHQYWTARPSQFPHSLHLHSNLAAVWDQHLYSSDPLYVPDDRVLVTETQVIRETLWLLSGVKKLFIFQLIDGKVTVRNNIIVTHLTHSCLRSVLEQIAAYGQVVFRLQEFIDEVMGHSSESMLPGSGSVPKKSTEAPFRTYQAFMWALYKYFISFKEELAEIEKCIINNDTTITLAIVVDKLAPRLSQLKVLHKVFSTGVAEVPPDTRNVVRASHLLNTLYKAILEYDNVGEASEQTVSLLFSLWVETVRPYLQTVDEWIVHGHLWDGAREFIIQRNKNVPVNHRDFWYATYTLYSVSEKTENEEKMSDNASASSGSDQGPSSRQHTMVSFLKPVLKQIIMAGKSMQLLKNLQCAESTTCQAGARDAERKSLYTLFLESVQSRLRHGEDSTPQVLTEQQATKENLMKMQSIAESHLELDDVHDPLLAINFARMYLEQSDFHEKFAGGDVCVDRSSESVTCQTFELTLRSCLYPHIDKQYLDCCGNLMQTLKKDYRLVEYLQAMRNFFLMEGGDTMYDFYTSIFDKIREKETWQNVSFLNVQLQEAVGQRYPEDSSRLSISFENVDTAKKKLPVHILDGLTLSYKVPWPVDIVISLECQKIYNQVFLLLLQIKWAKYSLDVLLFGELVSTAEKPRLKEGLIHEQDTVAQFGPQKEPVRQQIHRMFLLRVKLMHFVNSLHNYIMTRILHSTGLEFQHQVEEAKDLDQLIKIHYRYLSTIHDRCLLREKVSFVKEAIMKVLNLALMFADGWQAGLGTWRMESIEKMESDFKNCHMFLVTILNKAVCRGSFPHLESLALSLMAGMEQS
UniProt Q14157: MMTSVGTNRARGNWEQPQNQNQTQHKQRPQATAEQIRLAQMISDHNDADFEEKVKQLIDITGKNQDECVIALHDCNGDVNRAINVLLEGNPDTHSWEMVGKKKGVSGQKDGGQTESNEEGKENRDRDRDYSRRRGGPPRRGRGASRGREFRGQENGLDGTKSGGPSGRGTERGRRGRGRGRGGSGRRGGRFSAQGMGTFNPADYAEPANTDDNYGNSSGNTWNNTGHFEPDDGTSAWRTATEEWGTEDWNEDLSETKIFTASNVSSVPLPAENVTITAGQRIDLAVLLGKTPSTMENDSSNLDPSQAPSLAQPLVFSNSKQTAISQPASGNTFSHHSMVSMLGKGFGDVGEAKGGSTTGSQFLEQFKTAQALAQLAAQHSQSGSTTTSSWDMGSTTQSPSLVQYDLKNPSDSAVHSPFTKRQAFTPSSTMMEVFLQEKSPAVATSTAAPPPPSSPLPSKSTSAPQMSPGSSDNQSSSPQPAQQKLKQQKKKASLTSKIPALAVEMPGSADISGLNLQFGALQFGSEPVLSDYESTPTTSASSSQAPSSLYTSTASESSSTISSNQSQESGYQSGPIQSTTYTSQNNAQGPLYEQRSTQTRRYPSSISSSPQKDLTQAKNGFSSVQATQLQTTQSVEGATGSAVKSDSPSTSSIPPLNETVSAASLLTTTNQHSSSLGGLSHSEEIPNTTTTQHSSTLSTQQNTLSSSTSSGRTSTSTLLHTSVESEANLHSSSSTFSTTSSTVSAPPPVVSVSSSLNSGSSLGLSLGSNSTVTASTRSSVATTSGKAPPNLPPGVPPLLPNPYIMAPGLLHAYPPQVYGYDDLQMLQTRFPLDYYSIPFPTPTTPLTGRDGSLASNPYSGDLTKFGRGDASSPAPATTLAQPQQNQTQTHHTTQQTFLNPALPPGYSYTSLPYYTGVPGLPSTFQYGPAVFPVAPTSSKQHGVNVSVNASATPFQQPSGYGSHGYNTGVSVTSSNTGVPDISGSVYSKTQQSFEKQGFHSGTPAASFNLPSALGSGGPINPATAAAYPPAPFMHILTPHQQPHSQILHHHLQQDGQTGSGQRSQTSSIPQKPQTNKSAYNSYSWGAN

This passage reports log2 fold change results from the supplement of paper PMC10849652.

Compound in this assay: COc1cc2ncnc(Nc3ccc(F)c(Cl)c3)c2cc1OCCCN1CCOCC1 [gefitinib]
Briefly: log2 fold change, soluble protein after heating vs DMSO (PISA); higher = thermal stabilisation; K562 lysate, 10 uM; active = over 0.2 and 3.5 SD of the protein, either way, in both replicates (recomputed). An outline of the steps:
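To prepare the extract, K562 pellets were dounce-homogenised in PBS pH 7.4 with 1 mM MgCl2, giving crude material at 1 mg/mL protein. This was treated with 10 μM compound for 30 min, then heated in aliquots for 3 min over 48°C-58°C before pooling and addition of NP-40 to 0.5% at 4°C. Centrifugation at 21,000xg for 90 min left soluble protein in the supernatant, which TMTpro 16plex LC-MS/MS quantified with equalised channel sums. Results are log-two fold changes in thermal stability compared with solvent controls, from duplicates.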
As to TXNDC2 (UniProt Q86VQ3), the log2 fold change is inactive: -0.092.

Consider UBAP2 (UniProt Q5JV08), for which the log2 fold change is inactive: -0.139.

For the target TUBB8B (UniProt A6NNZ2), the log2 fold change is inactive: -0.127.

In the case of TUBB2B (UniProt Q9BVA1), the log2 fold change was inactive: -0.09.

As to UBE2K (UniProt D6RDM7), the log2 fold change is inactive: 0.138.

As for UBN2 (UniProt Q6ZU65), the log2 fold change was inactive: 0.194.

As for U2AF2 (UniProt K7ELP8), the log2 fold change was inactive: -0.15.

UBXN7 (UniProt H7BYF4): the log2 fold change is inactive: -0.127.

Regarding UBA52 (UniProt P62987), the log2 fold change was inactive: -0.038.

For TUBA8 (UniProt Q9NY65), the log2 fold change is inactive: 0.207.

For the target TYW5 (UniProt A2RUC4), the log2 fold change is inactive: -0.036.

Take TULP3 isoform 2 (UniProt O75386): the log2 fold change was inactive: -0.173.

In the case of TUBGCP5 (UniProt Q96RT8), the log2 fold change was inactive: -0.007.

UBAP2L isoform 1 (UniProt Q14157): the log2 fold change was inactive: -0.088.
